Measurements: patent US10590365B2, “Compounds for a controlled release of active molecules” (FIRMENICH SA, priority 2013, dated 2020)

Tested on: Propionibacterium acnes ATCC 6919
Assay: Incubation of pro-perfume glucuronide mixture with skin bacteria; remaining conjugate by LC-MS
Assay type: cell-based
Details: After 1 day, 37° C.; result in words
Description: The liberation of perfuming alcohols from the present invention's compounds of formula (I) was tested in vitro during incubation with defined skin bacteria strains.
c) Bacterial solutions: Two underarm bacterial isolates, Propionibacterium acnes ATCC 6919 and Staphylococcus warneri DSM 20316 (identified by 16S rDNA sequencing by Deutsche Sammlung von Mikroorganismen and ZellKulturen DSMZ, Germany), were cultivated on SCH agar at 37° C. during 72 h in anaerobic conditions and on TSA at 37° C. during 24 h, respectively.
One isolated colony of P. acnes from the pure primary culture on SCH agar was inoculated on a new SCH agar and incubated at 37° C., 72 h in anaerobic conditions. After incubation, the whole culture was dissociated by shaking in 20 ml of NaCl 0.9% then centrifuged 10 min at 5000 rpm at room temperature. The pellet was washed in NaCl 0.9% and concentrated two times in NaCl 0.9%. […]
The vials were placed in a heating block at 37° C. under gentle stirring from 1 to 7 days depending on the bacteria solutions. At the end of the incubation time, vials were cooled down to room temperature, 150 μL was mixed with 50 μL of LC-MS solvent B, filtered through acrodisc and 1 μL was injected on LC-MS (peak areas considered were measured in SIM mode according to their respective molecular weights). […]

Question: With `CC(=O)CCc1ccc(O[C@@H]2O[C@H](C(=O)O)[C@@H](O)[C@H](O)[C@H]2O)cc1` [(4-hydroxyphenyl)-2-butanone-β-D-glucopyranosiduronic acid] as the molecule, how does the “Glucuronide-conjugates remaining after incubation with Propionibacterium acnes” value read?
Answer: No transformation
